In PubChem BioAssay AID200 (DTP/NCI, 2004):
The list does not hold the whole screen: it gathers tests that were run many times, whatever their T/C, doses with no T/C, and many T/C values between a quarter and a half above the control. Other doses and runs of a compound stand elsewhere. T/C gives the treated animals as a percentage of the vehicle group. Some entries give survivors of the animals treated and no T/C: the source files T/C as zero there, which appears to mark a toxic dose or a test without result, not a measured value. Some doses without a T/C left all or most animals alive at the check, yet need not have been tolerated: survival well below the control is almost never listed, so the zero probably covers shortened survival too. Survivors were counted at the toxicity check, usually on the fifth day, unless a day is given; later deaths do not show. Schedules are NCI's codes, taken here to give the interval after Q, in days (D) or hours (H), and the number of doses after X. Some entries were tested several times; their values stand side by side, smallest first. Where survival is the endpoint, this PubChem deposit counts one and a half times the control or more as active, and values a quarter to a half above the control carry no call in these data; other NCI protocols may use other cut-offs. Some T/C values carry the count of animals alive at the toxicity check (mostly the fifth day); without a count, all were alive then. *1 amine or outer side, *2 acyl side, *3 side chain or, on linkers, in order; H or OH if unused. Where a SMILES comes first, the peptide text is derived from it. Bridges are numbered along the chain shown (N, C = ends). Roman numbers before positions name the chains, in order. [ ]: non-standard residue; d: D form. The star is where a group is joined. ξ: configuration not given here. Quinaldoyl(3-OH,6-OMe) = COc1ccc2nc(C(=O)*)c(O)cc2c1; X6 = CCC(=O)OC1CC=NN([*:1])C1C(=O)[*:2]; X7 = CC(=O)OC1CC=NN([*:1])C1C(=O)[*:2]; ξNMeVal(3-OH) = CNC(C(=O)O)C(C)(C)O; Sar = CNCC(=O)O

Test system: B6C3F1 mice, B16 melanoma ip, median survival T/C
Assay: NCI In Vivo Anticancer Drug Screen. Data for tumor model B16 Melanoma (intraperitoneal) in B6C3F1 mice
Conditions: T/C endpoint: median survival time, higher T/C = longer survival
Method in brief: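 Readout: survival or tumor size in treated mice relative to vehicle controls (T/C). Model uses transplantable tumors grown in mice.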

[1] = dose: 32.0 mg/kg/injection, schedule: Q01DX009 (ip), vehicle: saline
[2] = dose: 50.0 mg/kg/injection, schedule: Q01DX009 (ip), vehicle: saline with Tween-80
[3] = dose: 100.0 mg/kg/injection, schedule: Q01DX009 (ip), vehicle: saline with Tween-80
[4] = dose: 400.0 mg/kg/injection, schedule: Q01DX009 (ip), vehicle: Klucel (hydroxypropylcellulose) (HPC)
[5] = dose: 400.0 mg/kg/injection, schedule: Q01DX009 (ip), vehicle: saline with Tween-80
[6] = dose: 25.0 mg/kg/injection, schedule: Q01DX009 (ip), vehicle: saline
[7] = dose: 50.0 mg/kg/injection, schedule: Q01DX009 (ip), vehicle: saline
[8] = dose: 100.0 mg/kg/injection, schedule: Q01DX009 (ip), vehicle: saline
[9] = dose: 200.0 mg/kg/injection, schedule: Q01DX009 (oral), vehicle: saline
[10] = dose: 100.0 mg/kg/injection, schedule: Q01DX009 (ip), vehicle: Klucel (hydroxypropylcellulose) (HPC)

With C=C(C)[C@]12CC(C)C34OC(/C=C\C=C\CCCCCCCCC)(O[C@@H]1[C@@H]3[C@@H]1O[C@]1(CO)[C@@H](O)[C@]1(O)C(=O)C(C)=C[C@@H]41)O2 (stereo partly drawn) as the compound, how does the survivor count (dose: 0.75 mg/kg/injection, schedule: Q01DX009 (ip), vehicle: distilled water + alcohol) read?
Its survivor count is 4 of 10.

And the survivor count (dose: 1.5 mg/kg/injection, schedule: Q01DX009 (ip), vehicle: distilled water + alcohol)?
The survivor count was 0 of 10.

And the survivor count (dose: 3.0 mg/kg/injection, schedule: Q01DX009 (ip), vehicle: distilled water + alcohol)?
Its survivor count is 0 of 10.

For CC1CN1P1(N2CC2C)=NP(N2CC2C)(N2CC2C)=NP(N2CC2C)(N2CC2C)=N1 (stereo not drawn), which survivor count (dose: 16.0 mg/kg/injection, schedule: Q02DX009 (ip), vehicle: saline) is on record?
Its survivor count is 10 of 10.

And the T/C [1]?
The T/C was 125 % of control.

Which survivor count (dose: 62.0 mg/kg/injection, schedule: Q01DX009 (ip), vehicle: saline) does the source give for COc1ccc2c3c1OC1C(=O)CCC4C(C2)N(C)CCC314 (stereo not drawn) here?
Its survivor count is 4 of 10.

And the survivor count (dose: 124.0 mg/kg/injection, schedule: Q01DX009 (ip), vehicle: saline)?
Its survivor count is 0 of 10.

Which results are given for O=S1(=O)C=C(c2ccccc2)C(c2ccccc2)=C1?
survivor count (dose: 25.0 mg/kg/injection, schedule: Q01DX009 (ip), vehicle: saline with Tween-80): 9 of 10; survivor count [2]: 9 of 10; survivor count [3]: 0 of 10 and 9 of 10

How did the survivor count [4] turn out when O=C(Cl)c1ccccc1S(=O)(=O)N(CCOc1ccccc1)c1ccccc1 was run?
The survivor count was 7 of 10.

Which survivor count [5] does the source give for O=C1OCC2(C(=O)O)C(=O)OCC12 (stereo not drawn) here?
Its survivor count is 8 of 10.

What does the source list for COC1C(N)C(OC2C(Oc3cccc4c(O)c5c(=O)oc6ccc(C)c7c(=O)oc(c34)c5c67)OC(C)C(O)C2(C)O)OC(C)C1O (stereo not drawn)?
survivor count (dose: 14.0 mg/kg/injection, schedule: Q01DX009 (ip), vehicle: DMSO): 2 of 10; survivor count (dose: 20.0 mg/kg/injection, schedule: Q01DX009 (ip), vehicle: other): 0 of 8

With N#C[C@H](OC1OC(COC2OC(CO)C(O)C(O)C2O)C(O)C(O)C1O)c1ccccc1 (stereo partly drawn) as the compound, how does the T/C [6] read?
Its T/C is 89, 94, 96, 112 % of control.

And the T/C [7]?
The T/C was 87, 104, 105, 122 % of control.

What about the T/C [8] of the same compound?
The T/C was 98 [9 of 10 alive], 102, 127, 150 % of control.

And the T/C (dose: 100.0 mg/kg/injection, schedule: Q01DX009 (oral), vehicle: saline)?
Its T/C is 98, 99, 104, 112 % of control.

What about the T/C (dose: 200.0 mg/kg/injection, schedule: Q01DX009 (ip), vehicle: saline) of the same compound?
The T/C was 90, 105, 106, 123 % of control [9 of 10 alive].

And the T/C [9]?
Its T/C is 97 [8 of 10 alive], 100 [8 of 10 alive], 122 % of control.

And the survivor count [9]?
Its survivor count is 5 of 10.

What about the T/C (dose: 400.0 mg/kg/injection, schedule: Q01DX009 (ip), vehicle: saline) of the same compound?
Its T/C is 90, 94, 103 [7 of 10 alive], 126 % of control.

And the survivor count (dose: 400.0 mg/kg/injection, schedule: Q01DX009 (oral), vehicle: saline)?
Its survivor count is 1 of 10, 2 of 10, 3 of 10.

What about the T/C (dose: 800.0 mg/kg/injection, schedule: Q01DX009 (ip), vehicle: saline) of the same compound?
The T/C was 90, 93 [8 of 10 alive], 101, 102 % of control.

What about the survivor count (dose: 800.0 mg/kg/injection, schedule: Q01DX009 (oral), vehicle: saline) of the same compound?
The survivor count was 0 of 10.

What about the survivor count (dose: 1600.0 mg/kg/injection, schedule: Q01DX009 (oral), vehicle: saline) of the same compound?
The survivor count was 0 of 10.

What about the survivor count (dose: 3200.0 mg/kg/injection, schedule: Q01DX009 (oral), vehicle: saline) of the same compound?
Its survivor count is 0 of 10.

With O=c1[nH]cnc2c1ccn2C1OC(CO)C(O)C1O (stereo not drawn) as the compound, how does the survivor count (dose: 24.0 mg/kg/injection, schedule: Q01DX009 (ip), vehicle: saline) read?
Its survivor count is 10 of 10.

COc1ccc(OC)c(Cc2cnc3nc(N)nc(N)c3c2C)c1 was tested. Which survivor count (dose: 100.0 mg/kg/injection, schedule: Q01DX009 (ip), vehicle: water) did it give?
The survivor count was 7 of 10.

With C[C@@](O)(/C=C/[C@H]1CC=CC(=O)O1)[C@@H](C[C@@H](O)\C=C/C=C\C=C\CO)OP(=O)(O)O as the compound, how does the survivor count (dose: 50.0 mg/kg/injection, schedule: Q01DX009 (ip), vehicle: other) read?
The survivor count was 0 of 10 and 2 of 10.

Which T/C (dose: 32.0 micrograms/kg/injection, schedule: Q01DX009 (ip), vehicle: saline) does the source give for CCC(=O)OC1CC=NN2C(=O)C(NC(=O)c3nc4ccc(OC)cc4cc3O)COC(=O)C(C(C)(C)O)N(C)C(=O)CN(C)C(=O)CNC(=O)C3C(OC(C)=O)CC=NN3C(=O)C(NC(=O)c3nc4ccc(OC)cc4cc3O)COC(=O)C(C(C)(C)O)N(C)C(=O)CN(C)C(=O)CNC(=O)C12 (stereo not drawn) (I: {Quinaldoyl(3-OH,6-OMe)}-S[X6]G[Sar][ξNMeVal(3-OH)] / II: {Quinaldoyl(3-OH,6-OMe)}-S[X7]G[Sar][ξNMeVal(3-OH)]; ester I:1-II:C, I:C-II:1; configuration not given here) here?
Its T/C is 134 % of control.

And the T/C (dose: 64.0 micrograms/kg/injection, schedule: Q01DX009 (ip), vehicle: saline)?
Its T/C is 147 % of control.

C=C(C)C(=O)O[C@H]1CC2=C[C@@H](C[C@@]3(C)O[C@@H]3[C@H]3OC(=O)C(=C)[C@@H]31)OC2=O was tested. Which survivor count (dose: 30.0 mg/kg/injection, schedule: Q01DX009 (ip), vehicle: Klucel (hydroxypropylcellulose) (HPC)) did it give?
Its survivor count is 9 of 10.

What about the survivor count (dose: 60.0 mg/kg/injection, schedule: Q01DX009 (ip), vehicle: Klucel (hydroxypropylcellulose) (HPC)) of the same compound?
Its survivor count is 0 of 10.

For O=CC=O, which survivor count [5] is on record?
Its survivor count is 0 of 10 and 8 of 10.

Which results are given for Cc1c2cc[n+](C)cc2c(C)c2c1[nH]c1ccc(O)cc12?
T/C (dose: 0.06 mg/kg/injection, schedule: Q01DX009 (ip), vehicle: water): 130 % of control; T/C (dose: 0.25 mg/kg/injection, schedule: Q01DX009 (ip), vehicle: water, evaluated on day 45): 137 % of control; T/C (dose: 0.25 mg/kg/injection, schedule: Q01DX009 (ip), vehicle: water, evaluated on day 60): 126 % of control; T/C (dose: 0.5 mg/kg/injection, schedule: Q01DX009 (ip), vehicle: water, evaluated on day 45): 147 % of control; T/C (dose: 0.5 mg/kg/injection, schedule: Q01DX009 (ip), vehicle: water, evaluated on day 60): 132 % of control [9 of 10 alive]; T/C (dose: 1.0 mg/kg/injection, schedule: Q01DX009 (ip), vehicle: water): 145 % of control; survivor count (dose: 2.0 mg/kg/injection, schedule: Q01DX009 (ip), vehicle: water): 10 of 10; survivor count (dose: 4.0 mg/kg/injection, schedule: Q01DX009 (ip), vehicle: water): 10 of 10; survivor count (dose: 5.0 mg/kg/injection, schedule: Q01DX009 (ip), vehicle: saline): 7 of 8

O=C1c2ccccc2C(=O)c2c3c(cc(NCCNCCO)c21)N(CCO)CCN3 was tested. Which survivor count (dose: 200.0 mg/kg/injection, schedule: Q01DX009 (ip), vehicle: DMSO) did it give?
Its survivor count is 8 of 10.

And the survivor count (dose: 400.0 mg/kg/injection, schedule: Q01DX009 (ip), vehicle: DMSO)?
The survivor count was 0 of 10.

NC(=S)N/N=C/c1ccc(O)cn1 was tested. Which survivor count (dose: 200.0 mg/kg/injection, schedule: Q01DX009 (ip), vehicle: suspension in saline) did it give?
The survivor count was 10 of 10.

What about the survivor count (dose: 400.0 mg/kg/injection, schedule: Q01DX009 (ip), vehicle: suspension in saline) of the same compound?
Its survivor count is 10 of 10.

Which T/C [10] does the source give for CCOc1ccccc1C(=O)Nc1ccc(Br)cc1 here?
The T/C was 133 % of control.

And the T/C [4]?
Its T/C is 128 % of control.

What does the source list for C=C1C(=O)OCC1C(=O)O (stereo not drawn)?
survivor count [1]: 8 of 10; survivor count (dose: 64.0 mg/kg/injection, schedule: Q01DX009 (ip), vehicle: saline): 1 of 10 and 6 of 10; survivor count (dose: 128.0 mg/kg/injection, schedule: Q01DX009 (ip), vehicle: saline): 0 of 10

How did the T/C (dose: 50.0 mg/kg/injection, schedule: Q01DX009 (ip), vehicle: Klucel (hydroxypropylcellulose) (HPC)) turn out when O=C(Nc1ccc(N=C=S)cc1Cl)c1cc(Cl)cc(Cl)c1O was run?
The T/C was 130 % of control.

And the survivor count [10]?
Its survivor count is 1 of 10.

And the survivor count (dose: 200.0 mg/kg/injection, schedule: Q01DX009 (ip), vehicle: Klucel (hydroxypropylcellulose) (HPC))?
Its survivor count is 0 of 10.

Which T/C (dose: 6.0 mg/kg/injection, schedule: Q01DX009 (ip), vehicle: saline with Tween-80) does the source give for COC1/C=C\C=C(/C)C(=O)NC2=CC(=O)C(N)=C(CC(C)CC(OC)C(O)C(C)C=C(C)C1OC(N)=O)C2=O (stereo not drawn) here?
Its T/C is 125 % of control.

For C[C@@H]1CN(C(=O)CCOS(C)(=O)=O)[C@@H](C)CN1C(=O)CCOS(C)(=O)=O, which T/C [6] is on record?
Its T/C is 126 % of control.

What about the T/C [2] of the same compound?
Its T/C is 134 % of control.

What about the T/C [7] of the same compound?
The T/C was 131 % of control.

What about the T/C [3] of the same compound?
The T/C was 142 % of control.

What about the T/C [8] of the same compound?
Its T/C is 144 % of control.

And the T/C (dose: 200.0 mg/kg/injection, schedule: Q01DX009 (ip), vehicle: saline with Tween-80)?
The T/C was 136 % of control.
